Measured values taken from article PMC10218830.
These are yes or no findings as the source states them, for the method shown. For some of these results: In cells and extracts the contact can be indirect. Some binding calls cover weakened binding; strength is not graded here. Values belong to the substance of their own block, whether it stands above or below them.

Chains of the proteins cited; added tags and fusions are not shown.
UniProt Q96LA8: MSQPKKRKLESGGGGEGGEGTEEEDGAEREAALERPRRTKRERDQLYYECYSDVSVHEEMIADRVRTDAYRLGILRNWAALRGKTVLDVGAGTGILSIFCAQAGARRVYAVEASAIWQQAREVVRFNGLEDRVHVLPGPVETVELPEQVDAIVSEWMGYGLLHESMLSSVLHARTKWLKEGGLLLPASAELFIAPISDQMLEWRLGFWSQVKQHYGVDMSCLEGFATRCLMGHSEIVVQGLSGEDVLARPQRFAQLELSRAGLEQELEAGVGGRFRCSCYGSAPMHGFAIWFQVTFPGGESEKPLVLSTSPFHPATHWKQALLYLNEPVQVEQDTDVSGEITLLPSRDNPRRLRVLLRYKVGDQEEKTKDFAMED
UniProt Q99873: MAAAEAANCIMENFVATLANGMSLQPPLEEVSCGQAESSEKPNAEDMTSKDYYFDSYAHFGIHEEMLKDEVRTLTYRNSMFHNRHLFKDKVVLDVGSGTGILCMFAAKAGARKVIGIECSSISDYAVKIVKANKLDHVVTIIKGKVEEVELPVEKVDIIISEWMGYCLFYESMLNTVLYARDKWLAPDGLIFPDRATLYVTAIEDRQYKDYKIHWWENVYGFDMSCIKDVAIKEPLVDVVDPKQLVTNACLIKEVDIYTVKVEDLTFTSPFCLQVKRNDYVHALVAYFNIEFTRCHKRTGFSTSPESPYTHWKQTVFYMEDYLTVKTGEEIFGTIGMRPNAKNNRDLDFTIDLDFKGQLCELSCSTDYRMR
UniProt O60678: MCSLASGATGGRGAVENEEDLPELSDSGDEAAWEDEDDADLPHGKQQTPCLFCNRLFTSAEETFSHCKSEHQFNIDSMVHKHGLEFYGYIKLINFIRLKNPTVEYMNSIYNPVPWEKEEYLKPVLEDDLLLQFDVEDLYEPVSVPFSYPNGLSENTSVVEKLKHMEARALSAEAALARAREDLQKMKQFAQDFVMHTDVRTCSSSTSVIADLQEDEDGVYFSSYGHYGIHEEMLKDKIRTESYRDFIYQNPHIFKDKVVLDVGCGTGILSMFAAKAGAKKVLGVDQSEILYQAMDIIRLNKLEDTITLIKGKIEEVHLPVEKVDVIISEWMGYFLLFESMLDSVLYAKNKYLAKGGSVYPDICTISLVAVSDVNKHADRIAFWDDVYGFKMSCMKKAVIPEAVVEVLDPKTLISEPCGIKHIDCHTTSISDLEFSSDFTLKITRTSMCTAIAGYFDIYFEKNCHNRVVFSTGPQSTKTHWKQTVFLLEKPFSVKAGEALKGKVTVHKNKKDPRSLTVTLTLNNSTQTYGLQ
UniProt Q9UBS0: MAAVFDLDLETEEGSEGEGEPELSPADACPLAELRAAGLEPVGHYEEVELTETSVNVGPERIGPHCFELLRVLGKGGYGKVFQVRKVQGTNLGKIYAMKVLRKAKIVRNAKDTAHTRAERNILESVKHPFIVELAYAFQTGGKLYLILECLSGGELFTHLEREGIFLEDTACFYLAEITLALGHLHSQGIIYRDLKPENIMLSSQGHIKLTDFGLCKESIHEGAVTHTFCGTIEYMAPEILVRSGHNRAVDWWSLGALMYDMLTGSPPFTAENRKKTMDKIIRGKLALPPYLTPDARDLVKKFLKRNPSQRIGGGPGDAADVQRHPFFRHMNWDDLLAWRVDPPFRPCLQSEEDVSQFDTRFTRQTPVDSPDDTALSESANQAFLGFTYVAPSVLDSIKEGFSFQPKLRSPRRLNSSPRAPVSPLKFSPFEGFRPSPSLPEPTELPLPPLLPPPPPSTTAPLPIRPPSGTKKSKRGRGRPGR

Legend:
[1] = biological target: GST-PRMT6 (UniProt Q96LA8); test: pull-down; GST-PRMTs or GST alone on Glutathione-Sepharose 4B beads incubated with recombinant His-S6K2 in 20 mM Tris-HCl pH 7.5, 150 mM NaCl, 1% Triton, 1% BSA, 0.5% NP-40, 3 h at 4 C; with or without 200 uM AdoMet; immunoblot with anti-S6K2 antibody; both purified
[2] = biological target: GST-PRMT1 (UniProt Q99873); test: as above
[3] = biological target: GST-PRMT3 (UniProt O60678); test: as above
[4] = biological target: Myc-tagged PRMT6 (UniProt Q96LA8); test: co-IP; HEK293 cells expressing Myc-PRMT6 and EE-S6K2, treated 30 min with 100 nM Rapamycin, 50 uM LY294002 or DMSO; lysates immunoprecipitated with anti-Myc-tag (or anti-EE-tag) antibody; immune complexes read by in vitro kinase assay on 80S ribosomes (rpS6) with [gamma-32P]ATP
[5] = biological target: EE-tagged p54-S6K2 (human) (UniProt Q9UBS0); test: co-IP; HEK293 cells expressing Myc-PRMT6 and EE-S6K2, serum-free media for 24 h then 10% FBS for the indicated times (30 min to 6 h); lysates immunoprecipitated with anti-EE-tag antibody, immunoblotting
[6] = biological target: Ribosomal S6 kinase 2 (S6K2), endogenous (human (endogenous in HEK293)) (UniProt Q9UBS0); test: co-IP; endogenous S6K2 immunoprecipitated from HEK293 lysate, interacting proteins detected by immunoblotting; Protein A-Sepharose beads alone as control

Substance: Myc-tagged PRMT6 (from UniProt Q96LA8 1-375) (enzyme)
- binding [5]: binds

Substance: PRMT6, endogenous (from UniProt Q96LA8 1-375) (enzyme)
- binding [6]: binds

Substance: PRMT1, endogenous (from UniProt Q99873 1-371) (enzyme)
- binding [6]: binds

More lines, now with the values ahead:

- binding [1]: binds
- binding [2]: binds
- binding [3]: binds
Substance: His-S6K2 (from UniProt Q9UBS0 1-482) (enzyme)

- binding [4]: binds
Substance: EE-tagged p54-S6K2 (from UniProt Q9UBS0 1-482) (enzyme)
